According to PMC4339890 (Nature Communications, 2015):
Results are given in words; binding and its absence hold for the method and conditions named. Binding seen in cells or lysates may run through a third protein.

Sequences of proteins named here, by UniProt entry; tags and fusion partners are left off. A change or cut given only in a name is not applied to a line headed by its entry. A line that says so, or that is headed by a name, gives the form on record, which may keep a tag or linker. Residues count along the entry.
UniProt Q9BUH6: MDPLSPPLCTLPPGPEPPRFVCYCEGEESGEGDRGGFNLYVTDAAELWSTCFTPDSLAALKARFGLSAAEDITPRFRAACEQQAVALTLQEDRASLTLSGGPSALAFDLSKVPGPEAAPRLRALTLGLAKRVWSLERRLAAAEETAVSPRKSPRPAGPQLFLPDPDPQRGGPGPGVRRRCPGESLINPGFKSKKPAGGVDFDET
PAXX deletion mutant AA 1–170: residues 1-170 of Q9BUH6
PAXX IN186–187AA (Q9BUH6, form named): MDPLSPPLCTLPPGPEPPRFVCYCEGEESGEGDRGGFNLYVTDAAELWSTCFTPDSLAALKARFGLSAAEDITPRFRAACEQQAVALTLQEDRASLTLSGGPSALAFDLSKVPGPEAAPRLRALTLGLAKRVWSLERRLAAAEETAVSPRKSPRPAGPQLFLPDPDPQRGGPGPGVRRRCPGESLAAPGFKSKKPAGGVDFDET
PAXX RRR177–179AAA (Q9BUH6, form named): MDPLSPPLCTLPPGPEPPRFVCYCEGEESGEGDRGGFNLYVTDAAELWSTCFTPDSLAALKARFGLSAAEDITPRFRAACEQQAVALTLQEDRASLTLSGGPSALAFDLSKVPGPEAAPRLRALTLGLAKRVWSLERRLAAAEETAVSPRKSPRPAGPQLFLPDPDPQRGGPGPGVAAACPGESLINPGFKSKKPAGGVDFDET
UniProt Q13426: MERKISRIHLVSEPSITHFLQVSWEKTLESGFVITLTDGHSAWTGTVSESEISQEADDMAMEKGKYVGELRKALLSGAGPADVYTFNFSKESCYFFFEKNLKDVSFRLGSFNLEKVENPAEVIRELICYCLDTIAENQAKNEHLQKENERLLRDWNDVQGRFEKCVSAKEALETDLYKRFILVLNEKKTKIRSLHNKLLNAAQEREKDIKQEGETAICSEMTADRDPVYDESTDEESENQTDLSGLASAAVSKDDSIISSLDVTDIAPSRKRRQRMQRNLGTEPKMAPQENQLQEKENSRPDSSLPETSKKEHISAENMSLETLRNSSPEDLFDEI

Columns and labels:
Assay in all cases: co-IP; Flag-tagged bait expressed in HEK293 cells; anti-Flag M2 agarose; immunoblot of the endogenous partners; Fig. 1c with washes at different sodium concentrations; Fig. 5a with or without ethidium bromide added to the lysate
[1] = biological target: PAXX deletion mutant AA 1–170 (human) (UniProt Q9BUH6)
PAXX IN186–187AA (human) = PAXX IN186–187AA (human) (UniProt Q9BUH6)
[2] = biological target: PAXX RRR177–179AAA (human) (UniProt Q9BUH6)
[3] = biological target: PAXX F201A (expressed in HEK293) (human) (UniProt Q9BUH6)

Measured: binding

XRCC4, endogenous (from UniProt Q13426 1-336)
no binding: all assays above
